{"source": "PubChem BioAssay AID1224826 (NIAID, 2016)", "aim": "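Regulators of Tlr4 signalling leading to Tnf-alpha expression in macrophages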 (primary screen)", "cells": "RAW264.7 G9 macrophages from mouse bearing reporters for p65 (GFP) and the Tnf promoter (mCherry)", "knock-down reagent": "siRNA pool against mouse genes, 100 nM", "duration": "16 h of LPS stimulation, after 2 days of siRNA transfection", "challenge": "bacterial lipopolysaccharide (Salmonella minnesota R595), 10 ng/ml", "measurement": "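Nuclear mCherry signal of the Tnf promoter reporter measured by imaging after background removal, scaled to each plate median and turned into robust z-scores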", "reading the numbers": "Tnf reporter robust z-score: higher = stronger Tnf promoter reporter signal after LPS", "active means": "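Called active when robust z-score is at most -1.3, matching the median of the Tlr4 knock-down control, or over 3; control wells and wells with under 50 cells never active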", "calls": "active = Tnf reporter clearly lowered or raised; inactive = no clear change in Tnf reporter", "note": "Shown is an unselected part of about 17,000 deposited reagents. Over the whole deposit, about 1,110 (6.6%) got an active call. 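Active means lowered or raised reporter signal; replicate intensities are raw and not normalised per plate.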 A number with no mark means an inactive call. Further read-outs or replicates are left out here."}
{"Gene": "Insrr", "Tnf reporter robust z-score": 0.34, "fewer than 50 cells in well": "enough cells in well"}
{"Gene": "Mios", "Tnf reporter robust z-score": 1.57, "fewer than 50 cells in well": "enough cells in well"}
{"Gene": "Cd3g", "Tnf reporter robust z-score": 0.73, "fewer than 50 cells in well": "enough cells in well"}
{"Gene": "Hepacam", "fewer than 50 cells in well": "fewer than 50 cells per well; well left out of calls"}
{"Gene": "Vmn1r188", "Tnf reporter robust z-score": -1.05, "fewer than 50 cells in well": "enough cells in well"}
{"Gene": "Pacsin3", "Tnf reporter robust z-score": -0.56, "fewer than 50 cells in well": "enough cells in well"}
{"Gene": "Tmem164", "Tnf reporter robust z-score": 1.15, "fewer than 50 cells in well": "enough cells in well"}
{"Gene": "Xlr5c", "Tnf reporter robust z-score": 0.71, "fewer than 50 cells in well": "enough cells in well"}
{"Gene": "Fam107a", "Tnf reporter robust z-score": -0.96, "fewer than 50 cells in well": "enough cells in well"}
{"Gene": "Cdx4", "Tnf reporter robust z-score": -0.23, "fewer than 50 cells in well": "enough cells in well"}
{"Gene": "Borcs5", "Tnf reporter robust z-score": 0.81, "fewer than 50 cells in well": "enough cells in well"}
{"Gene": "Ptprs", "Tnf reporter robust z-score": 0.29, "fewer than 50 cells in well": "enough cells in well"}

Targets listed so far whose gene name begins with P or p (2):
{"Gene": "Pacsin3", "Tnf reporter robust z-score": -0.56, "fewer than 50 cells in well": "enough cells in well"}
{"Gene": "Ptprs", "Tnf reporter robust z-score": 0.29, "fewer than 50 cells in well": "enough cells in well"}
